No constants are given. Whether binding was seen depends on the method and setting. Some results given as binding are weak or reduced against the parent protein; the word gives no strength.
How the values were obtained:
[1] = biological target: T1, human FLT3 expressed on the cell surface (human, UniProt P36888 27-993); test: competition FACS on MOLM-13 cells: FL titrated 0.1 to 100 ng/ml, 30 min pre-incubation; displaced antibody: biotinylated cHv62-1b37.1 at 10 ug/ml
T1 construct: FLT3 on human leukemia cell lines, on recombinant cells and on primary blood cells; also called Flk2; STK1
Procedure: In another experiment, The ability of anti-FLT3 antibodies, CHv62.21 and v62-1b37.1, to bind to FLT3 expressed on the surface of human leukemia MOLM-13 cell line was evaluated in the presence of human FLT3 Ligand (hFL). Isotype control antibody, AGS91.1-pAF, was used as a negative control.
Briefly, The MOLM-13 cells were seeded at a density of 50,000 cells per well onto round-bottom 96 well plates. The plates were washed one time with 150 μl per well of PBS. The cells were Fc blocked (20 μg/mL) at a volume of 50 μl per well in FACS buffer (PBS+2% FBS+0.1% sodium azide) to reduce non-specific binding. Cells were incubated at 4° C. for 15 minutes. Human FLT3 Ligand was added to appropriate wells at 100 ng/mL and serially diluted 1:2 across the plate for a total of 11 points. Cells were incubated for 30 minutes at 4° C. prior to adding biotinylated FLT3 antibodies. After incubation, the biotinylated anti-FLT3 antibodies and isotype control antibody were prepared in FACS buffer at 10 μg/mL and 1 μg/mL and 25 μl was added to wells and incubated for 1 hour at 4° C. Cells were washed two times with FACS buffer and Streptavidin-PE (Jackson immune) was added 100 μl per well and incubated for 1 hour at 4° C. Cells were washed two times with FACS buffer and read on the Attune Cytometer (Life technologies) and analyzed in FlowJo (Tree Star) software.

Sequences of proteins named here, by UniProt entry; tags and fusion partners are left off. A change or cut given only in a name is not applied to a line headed by its entry.
UniProt P36888: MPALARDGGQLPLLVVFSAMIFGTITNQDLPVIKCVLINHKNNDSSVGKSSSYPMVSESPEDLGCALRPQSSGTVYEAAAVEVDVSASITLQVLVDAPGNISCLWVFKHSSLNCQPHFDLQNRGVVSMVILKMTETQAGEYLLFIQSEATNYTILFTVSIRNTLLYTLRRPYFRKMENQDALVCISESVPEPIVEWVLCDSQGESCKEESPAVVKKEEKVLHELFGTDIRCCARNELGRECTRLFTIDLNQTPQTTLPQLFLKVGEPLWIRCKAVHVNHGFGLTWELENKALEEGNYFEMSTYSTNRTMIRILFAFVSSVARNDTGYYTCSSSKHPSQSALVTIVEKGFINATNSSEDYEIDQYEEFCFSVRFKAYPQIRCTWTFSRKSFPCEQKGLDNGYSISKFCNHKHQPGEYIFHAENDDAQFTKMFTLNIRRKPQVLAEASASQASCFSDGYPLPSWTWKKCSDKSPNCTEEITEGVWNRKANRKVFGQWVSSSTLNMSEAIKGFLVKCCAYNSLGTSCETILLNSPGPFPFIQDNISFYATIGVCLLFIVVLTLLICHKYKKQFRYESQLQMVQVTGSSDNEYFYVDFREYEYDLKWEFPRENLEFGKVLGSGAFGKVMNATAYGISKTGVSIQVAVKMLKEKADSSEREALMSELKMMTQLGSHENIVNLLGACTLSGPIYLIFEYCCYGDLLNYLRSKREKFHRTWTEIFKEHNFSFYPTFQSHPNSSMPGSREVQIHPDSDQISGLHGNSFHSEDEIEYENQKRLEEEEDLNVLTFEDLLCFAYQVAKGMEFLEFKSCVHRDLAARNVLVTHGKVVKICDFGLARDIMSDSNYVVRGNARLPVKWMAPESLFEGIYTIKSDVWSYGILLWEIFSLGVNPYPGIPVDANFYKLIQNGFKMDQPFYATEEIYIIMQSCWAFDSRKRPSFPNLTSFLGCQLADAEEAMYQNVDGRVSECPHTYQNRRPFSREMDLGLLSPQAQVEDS

[2] = biological target: Recombinant human FLT3-Fc (R and D Systems) (human) (UniProt P36888); test: Luminex bead assay: biotinylated FLT3 ligand (5 ng/mL) on Flt3-Fc chimera immobilised on microspheres, detected with streptavidin-PE
[3] = biological target: Recombinant human FLT3-Fc (R and D Systems) (human) (UniProt P36888); test: Luminex: biotinylated ligand on FLT3-Fc microspheres, Streptavidin-R-Phycoerythrin

Measured: binding

B1: human FLT3 ligand (ligand, UniProt P49771 27-185, looked up)
chain: TQDCSFQHSPISSDFAVKIRELSDYLLQDYPVTVASNLQDEELCGGLWRLVLAQRWMERLKTVAGSKMQGLLERVNTEIHFVTKCAFQPPPSCLRFVQTNISRLLQETSEQLVALKPWITRQNFSRCLELQCQPDSSTLPPPWSPRPLEATAPTAPQPP
modifications: biotinylated (Sulfo-NHS-LC-Biotin) in the Luminex assay
notes: later experiments say human FLT3 ligand; Treated as one molecule; also called hFL
binds: [1] | [2] | [3]

From US20160272716A1 (AGENSYS, published 2016)
